Data published in PMC7186227.
Results are given in words; binding and its absence hold for the method and conditions named. Binding seen in cells or lysates may run through a third protein. Some results given as binding are weak or reduced against the parent protein; the word gives no strength.

Target: MITA (mediator of IRF3 activation) (human (endogenous in HT1080)), Q86WV6
Test: co-IP; HT1080 cells asynchronized or synchronized (mitotic), untreated or treated with cGAMP for 2 h; co-immunoprecipitation and immunoblotting; precipitating antibody not stated
Conditions: remark: other sources report otherwise

binding: binds
B1: TBK1, Q9UHD2 1-729 (protein)
chain: MQSTSNHLWLLSDILGQGATANVFRGRHKKTGDLFAIKVFNNISFLRPVDVQMREFEVLKKLNHKNIVKLFAIEEETTTRHKVLIMEFCPCGSLYTVLEEPSNAYGLPESEFLIVLRDVVGGMNHLRENGIVHRDIKPGNIMRVIGEDGQSVYKLTDFGAARELEDDEQFVSLYGTEEYLHPDMYERAVLRKDHQKKYGATVDLWSIGVTFYHAATGSLPFRPFEGPRRNKEVMYKIITGKPSGAISGVQKAENGPIDWSGDMPVSCSLSRGLQVLLTPVLANILEADQEKCWGFDQFFAETSDILHRMVIHVFSLQQMTAHKIYIHSYNTATIFHELVYKQTKIISSNQELIYEGRRLVLEPGRLAQHFPKTTEENPIFVVSREPLNTIGLIYEKISLPKVHPRYDLDGDASMAKAITGVVCYACRIASTLLLYQELMRKGIRWLIELIKDDYNETVHKKTEVVITLDFCIRNIEKTVKVYEKLMKINLEAAELGEISDIHTKLLRLSSSQGTIETSLQDIDSRLSPGGSLADAWAHQEGTHPKDRNVEKLQVLLNCMTEIYYQFKKDKAERRLAYNEEQIHKFDKQKLYYHATKAMTHFTDECVKKYEAFLNKSEEWIRKMLHLRKQLLSLTNQCFDIEEEVSKYQEYTNELQETLPQKMFTASSGIKHTMTPIYPSSNTLVEMTLGMKKLKEEMEGVVKELAENNHILERFGSLTMDGGLRNVDCL
